Laboratory results: publication PMC12260392, “Expanding the diversity of bacterial DNA partitioning: A CTP-independent ParABS system for plasmid partitioning in Streptomyces” (Proceedings of the National Academy of Sciences of the …, 2025)

What was measured:
[1] = biological target: T1, biotinylated ParT (WT), ParB-like protein of plasmid SCP2 (Streptomyces coelicolor) (UniProt Q8VWE5); assay: condition: only 1 µM ParA with 1 mM ATP, without DNA; BLI; biotinylated ParT immobilised on streptavidin probes; 1 µM ParA-His6 with 1 mM ATP, no DNA; 100 mM Tris-HCl pH 8, 150 mM NaCl, 1 mM MgCl2, 0.005% Tween-20; both purified
T1 sequence (chain, biotin (site and way of biotinylation not stated)): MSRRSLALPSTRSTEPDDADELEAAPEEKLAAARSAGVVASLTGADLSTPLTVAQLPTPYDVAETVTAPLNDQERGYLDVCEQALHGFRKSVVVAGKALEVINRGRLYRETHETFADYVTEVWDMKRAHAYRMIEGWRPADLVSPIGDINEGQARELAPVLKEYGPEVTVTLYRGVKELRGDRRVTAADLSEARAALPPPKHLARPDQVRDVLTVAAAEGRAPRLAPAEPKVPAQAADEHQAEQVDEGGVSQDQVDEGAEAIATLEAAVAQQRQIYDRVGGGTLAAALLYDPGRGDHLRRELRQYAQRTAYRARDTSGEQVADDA

[2] = biological target: T1, biotinylated ParT (WT), ParB-like protein of plasmid SCP2 (Streptomyces coelicolor); assay: BLI; biotinylated ParT (WT or ΔN3) immobilised on streptavidin probes; 1 µM ParA-His6 preincubated on ice for 20 min with 1 mM ATP and 0.05 mg/mL salmon sperm DNA; 100 mM Tris-HCl pH 8, 150 mM NaCl, 1 mM MgCl2, 0.005% Tween-20; both purified
[3] = biological target: T1, biotinylated ParT (WT), ParB-like protein of plasmid SCP2 (Streptomyces coelicolor); assay: condition: only 1 µM ParA alone, without ATP and without DNA; BLI; biotinylated ParT immobilised on streptavidin probes; 1 µM ParA-His6 alone (apo-ParA, no ATP, no DNA); 100 mM Tris-HCl pH 8, 150 mM NaCl, 1 mM MgCl2, 0.005% Tween-20; both purified
[4] = biological target: T1, biotinylated ParT (WT), ParB-like protein of plasmid SCP2 (Streptomyces coelicolor); assay: condition: only 1 µM ParA with 0.05 mg/mL nonspecific DNA, without ATP; BLI; biotinylated ParT immobilised on streptavidin probes; 1 µM ParA-His6 with 0.05 mg/mL nonspecific (salmon sperm) DNA, no ATP; 100 mM Tris-HCl pH 8, 150 mM NaCl, 1 mM MgCl2, 0.005% Tween-20; both purified

binding [1]: no binding | binding [2]: binds | binding [3]: no binding | binding [4]: no binding
Substance: ParA-His6, ParA of plasmid SCP2 (Streptomyces coelicolor) (enzyme)

These are yes or no findings as the source states them, for the method shown. For some of these results: Binding calls can cover weak binding; strength is not graded here. Where a sequence is shown, tags or fusion partners need not be part of it.
